Experimental data: PMC7075897
Results are given in words; binding and its absence hold for the method and conditions named. In cells and extracts the contact can be indirect. A yes stands for co-enrichment or nearness to the bait. Other partners may have been found. Tags and fused reporters may be left off the sequences shown.

T1: EcR (isoform A) fused to APEX2 through a 25 nm GS linker, marked with 3xFLAG (Drosophila melanogaster) (UniProt P34021)
T1 sequence: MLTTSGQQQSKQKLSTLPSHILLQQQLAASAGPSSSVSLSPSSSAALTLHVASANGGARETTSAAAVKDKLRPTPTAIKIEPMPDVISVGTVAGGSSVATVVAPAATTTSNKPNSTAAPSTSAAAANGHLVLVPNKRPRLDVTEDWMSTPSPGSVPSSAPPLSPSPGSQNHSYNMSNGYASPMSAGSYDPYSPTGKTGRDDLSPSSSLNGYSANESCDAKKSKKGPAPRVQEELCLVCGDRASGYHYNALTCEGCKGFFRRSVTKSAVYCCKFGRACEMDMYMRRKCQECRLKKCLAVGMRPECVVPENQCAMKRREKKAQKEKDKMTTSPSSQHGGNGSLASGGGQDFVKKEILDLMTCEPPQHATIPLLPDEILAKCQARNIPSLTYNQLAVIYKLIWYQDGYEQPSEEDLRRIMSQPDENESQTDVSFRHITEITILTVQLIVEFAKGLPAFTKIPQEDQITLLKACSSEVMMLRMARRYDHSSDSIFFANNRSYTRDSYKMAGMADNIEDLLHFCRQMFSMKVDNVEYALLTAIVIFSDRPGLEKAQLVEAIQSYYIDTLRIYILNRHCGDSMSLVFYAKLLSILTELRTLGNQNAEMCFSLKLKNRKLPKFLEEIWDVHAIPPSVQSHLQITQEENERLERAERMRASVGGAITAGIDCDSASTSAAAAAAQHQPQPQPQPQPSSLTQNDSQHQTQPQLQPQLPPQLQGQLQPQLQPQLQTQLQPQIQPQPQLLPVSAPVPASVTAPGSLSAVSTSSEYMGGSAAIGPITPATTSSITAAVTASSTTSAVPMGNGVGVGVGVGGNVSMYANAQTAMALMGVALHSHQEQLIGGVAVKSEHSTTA

T2: Usp fused to APEX2 through a 25 nm GS linker, marked with 3xFLAG (Drosophila melanogaster) (UniProt P20153)
T2 sequence: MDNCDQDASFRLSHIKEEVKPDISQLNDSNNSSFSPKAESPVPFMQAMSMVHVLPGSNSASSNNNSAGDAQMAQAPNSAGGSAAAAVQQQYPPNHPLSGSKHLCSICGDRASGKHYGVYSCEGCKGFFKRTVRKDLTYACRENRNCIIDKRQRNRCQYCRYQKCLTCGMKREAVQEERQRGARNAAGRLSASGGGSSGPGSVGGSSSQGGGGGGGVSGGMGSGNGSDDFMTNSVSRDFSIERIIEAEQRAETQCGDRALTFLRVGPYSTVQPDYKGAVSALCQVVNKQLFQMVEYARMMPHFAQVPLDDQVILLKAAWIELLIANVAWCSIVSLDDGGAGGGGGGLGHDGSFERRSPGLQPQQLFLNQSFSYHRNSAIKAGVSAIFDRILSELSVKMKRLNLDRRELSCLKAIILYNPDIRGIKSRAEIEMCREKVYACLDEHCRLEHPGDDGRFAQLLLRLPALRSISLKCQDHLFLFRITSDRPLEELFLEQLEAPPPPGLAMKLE

T3: Usp fused to BioID2 through a 25 nm GS linker, marked with 3xFLAG (Drosophila melanogaster) (UniProt P20153)
T3 sequence: T2 sequence

T4: EcR (isoform A) fused to BioID2 through a 25 nm GS linker, marked with 3xFLAG (Drosophila melanogaster) (UniProt P34021)
T4 sequence: T1 sequence

B1: Hcf (protein, UniProt Q9V4C8 1-1500)
chain: MEGSDFVDPAFSSGERISASDLNSEHIIQAENHSFANRISMDMDVPDGHQLDSNLTGFRWKRVLNPTGPQPRPRHGHRAINIKELMVVFGGGNEGIVDELHVYNTVTNQWYVPVLKGDVPNGCAAYGFVVEGTRMFVFGGMIEYGKYSNELYELQATKWEWRKMYPESPDSGLSPCPRLGHSFTMVGEKIFLFGGLANESDDPKNNIPKYLNDLYILDTRGVHSHNGKWIVPKTYGDSPPPRESHTGISFATKSNGNLNLLIYGGMSGCRLGDLWLLETDSMTWSKPKTSGEAPLPRSLHSSTMIGNKMYVFGGWVPLVINDSKSTTEREWKCTNTLAVLDLETMTWENVTLDTVEENVPRARAGHCAVGIQSRLYVWSGRDGYRKAWNNQVCCKDLWYLEVSKPLYAVKVALVRASTHALELSWTATTFAAAYVLQIQKIEQPLNTSSKLLSNNIVQQGTPTSAETSGINISANRSGSALGLGVEATSTVLKLEKESLQLSGCQPETNVQPSVNDLLQSMSQPSSPASRADKDPLSSGGGTTFNLSTSVASVHPQISVISSTAAVTGNDTASPSGAINSILQKFRPVVTAVRTSTTTAVSIATSTSDPLSVRVPSTMSANVVLSSSSSTLRIVPSVTASHSLRIASSQASGNNCRSSSAINILKTALPNVAVQSQPTSSTTTSIGGKQYFIQKPLTLAPNVQLQFVKTSGGMTVQTLPKVNFTASKGTPPHGISIANPHLASGITQIQGSTVPGSQIQKPIVSGNVLKLVSPHTMAGGKLIMKNSNILQMGKVTPNVMGGKPAFVITNKQGTPLGNQQIIIVTTGGNVRSVPTSTVMTSAGGSASGTNIVSIVNSTSTTPSPLQALSGQKTLISNQSGVKMLRNISSVQASSSMAFGQKQSGTPIHQKTALYIGGKAVTVMSTNTSMAASGNKVMVLPGTSSNNSPATTTALSARKSFVFNAGGSPRTVTLATKSINAKSIPQSQPVTETNNHSVATIKDTDPMDDIIEQLDGAGDLLKLSESEGQHGSEENENNGENATSSSASALFTGGDTAGPSRAQNPIVMEHPVDIIEDVSGVSSTTDVNETAIVSGDTIESLKMSEKENDDVKSMGEKSILSDDCHQPTTSETEAATILTTIKSAEALVLETAEIRKDHTGCTIGSLKENQDENKKFKQRQESSPSQNIHQFQNVDGSQLEALASAALLQAATSDTTALALKELIERPESETNTRSSNIAEIQQNNVQSTLAVVVPNTSQNENQKWHTVGVFKDLSHTVTSYIDSNCISDSFFDGIDVDNLPDFSKFPRTNLEPGTAYRFRLSAINSCGRGEWGEISSFKTCLPGFPGAPSAIKISKDVKEGAHLTWEPPPAQKTKEIIEYSVYLAVKPTAKDKALSTPQLAFVRVYVGAANQCTVPNASLSNAHVDCSNKPAIIFRIAARNQKGYGPATQVRWLQDPAAAKQHTPTVTPNLKRGPEKSTIGSSNIANTFCSPHKRGRNGLHD
B2: Uba1 (protein, UniProt Q8T0L3 1-1191)
chain: MSSGQQLMADSPACSSSDHSPLAKKRRLELLGDGVGAMGMEEEEAGGATSSSSSNNYENHDKAGGVDISGKCQSKTTSEHQLELCVSSSTSDTCGVNAAAKRAEKQKLKQSQGSGDDVSTSSAVEKEGSKRPEKRNYLNTTTIESQEASSSASATSNSNNNVSSSNNNSNNSTNNRQLEGSSNMAGNSAAAGGDIDESLYSRQLYVLGHDAMRRMANSDILLSGLGGLGLEIAKNVILGGVKSITLHDTATCGLHDLSSQFYLTEADIGKNRAEASCAQLAELNNYVRTVSHTGPLTEEFLRKFRVVVLTNSDGEEQQRIAKFAHENGIALIIAETRGLFAKVFCDFGESFTIYDQDGTQPISTMIASITHDAQGVVTCLDETRHGFNDGDYVTFSEVQGMQELNGCQPLKITVLGPYTFSIGDTSKFGEYKSGGVATQVKMPKTISFKPLAQATEEPEFLISDFAKLDSPATLHVAFNALSCYRKAHNGALPRPWNEEDANSFLEVVRASSNAEVDEKLVLQFAKICSGNTCPLDAAVGGIVAQEVLKACSGKFTPIYQWLYFDALECLPTEGVEEADAQPVGSRYDSQIAIFGKKFQEKLADSKWFIVGAGAIGCELLKNFGMLGLGTGNGQIFVTDMDLIEKSNLNRQFLFRPHDVQKPKSMTAADAIKRMNPEVNVTAYELRVGAETEKVFSEDFFGKLDGVANALDNVDARIYMDRKCIFNRIPLVETGTLGTLGNVQVIVPFATESYSSSQDPPEKSIPICTLKNFPNAIEHTLQWARDAFEGVFKQSAENAAQYIADPQFTERIAKLPGIQPLEILDSIKKALIDDKPKSFAHCVEWARLYWEDQYVNQIKQLLFNFPPDQITSSGQPFWSGPKRCPDPLVFDVNDPMHLDFIYAAANLRAEVYGIEQVRNRETIAELVQKVKVPEFKPRSGVKIETNEAAAAASANNFDDGELDQDRVDKIISELLKNADKSSKITPLEFEKDDDSNLHMDFIVACSNLRAANYKIPPADRHKSKLIAGKIIPAIATTTSVLSGLAVLEVIKLIVGHRDLVKFKNGFANLALPFMAFSEPLPAAKNTYYGKEWTLWDRFEVTGELSLQEFLNYFEENEKLKITMLSQGVSMLYSFFMPKAKCSERLPLPMSEVVRRVSKRRLEPHERSLVFEICCNDVDGEDVEVPYVRYTLP
B3: Nup50 (protein, UniProt Q7K0D8 1-564)
chain: MAGKRQATSNLNHENWDLEEEPEERGTFRTATEEELKTRVIKKARRKIAGGSSAAEEDGAEEKTAEPKSVFSGFSGFGKPAASPAAGSPFSFLANVTAPATTSSSEPKKSAFSFGFSSSSSSADRPVSTSICGTASTSSTAPSPLPAKESTSTVDGAKPTTSIFGNISAAKKESSEAKTSSSSTSLTSTMETSEYRESVADLNRSVIKFLQDQMGKSPYCILTPVFKNYDEHLKDLQDEESARTNSTKSKTAQARSQEPVAKVSRASSPPKAATTFTFGKPSAPIGASVSPLAKKPNCTITSGGTTTTTATPLVSFGSTASFTAPVPSSSSIFSLTAKPTGEAKSDDTPKSSIFSFGAKDTTTKKDEPNFSAPKTNGFSFGLKSNNDDKPSTSLFAGFGKAPGGAGDGAKGFSFTNSATPFSLGNIHPPAAAAAPAEEEKEEDTPPKVEFKQVVEDDAIYSKRCKVFIKKDKDFGDRGVGTLYLKPVKDSEKIQLLVRADTNLGNILVNLILSKGIPCQRMGKNNVLMVCVPTPEDSKATSLLLRVKTGDEADDLLEKIKEHIK
B4: cg10077 (protein, UniProt Q8MZI3 1-818)
chain: MNMYNGQMNAFGGGGGGGAGGLAGGMVPNRMGGGAPGGGPGGAGMFQRNRSAPYPGFNGHGPANGGQRRMNGGGPSMGPGGPRNQDGFGGQNGGQRSSNHGAHLPKIVWSEVNLTPFRKNFYKPCDSVLARTVGETETFLTSNEITIKGDQVPTPSIEFEEGGFPDYVMNEIRKQGFAKPTAIQAQGWPIAMSGRDLVGVAQTGSGKTLAYVLPAVVHINNQPRLERGDGPIALVLAPTRELAQQIQQVAIEFGSNTHVRNTCIFGGAPKGQQARDLERGVEIVIATPGRLIDFLERGTTSLKRCTYLVLDEADRMLDMGFEPQIRKIMQQIRPDRQVLMWSATWPKEVRQLAEEFLNNYIQVNIGSLSLSANHNILQIVDVCDENEKLMKLIKLLTDISAENETKTIIFVETKKRVDEITRNISRQGWRACAIHGDKSQQERDFVLSSFRNGRHSILVATDVAARGLDVDDVKFVINYDYPSNSEDYVHRIGRTGRSNNTGTAYTLFTHSNANKANDLIQVLREANQTINPKLMNMAMNGGYNKRGGGMGGGYRGGNGYQGRNPQMGGGYNGGNNYRNNNGPGATMNRNSFNGGSAGGPPRFDQKPRTSPPNQGGQGGYRGQGGGGYQGQQQQQQQQNGGVPFSRFNPNAACFEPNKPQNGPGSGPPQAQHQQQQQAQAAQQQHLLPDASVQAAMTAANYGVDQKRSRFSPYNMNFANMPPPAMNQQQAAAAQQQQQQQLQTPQQQQQQQQMQQPQAYGQYSSMSSSMATVSLNGGAAAVASSYRAPYAVPTQAAPYMMANGGDIFAYPPPPLPVQN

Each binder was assayed against T1, EcR (isoform A) fused to APEX2 through a 25 nm GS linker, marked with 3xFLAG (Drosophila melanogaster) (assay: proximity labelling; APEX2 fused to EcR or Usp, stably expressed in S2 cells; 20E or DMSO 1 h, biotin-phenol 30 min, 1 mM H2O2 5 min; nuclear extract, Streptavidin-Agarose precipitation, LC-MS/MS).

binding, binds:
B1
B2

The binders below were run against T2, Usp fused to APEX2 through a 25 nm GS linker, marked with 3xFLAG (Drosophila melanogaster) in the same assay as above.

binding, binds:
B1
B2

The binders below were run against T3, Usp fused to BioID2 through a 25 nm GS linker, marked with 3xFLAG (Drosophila melanogaster) (assay: proximity labelling; BioID2 fused to EcR or Usp, stably expressed in S2 cells; biotin 50 nM, 20E or DMSO for 14 h; nuclear extract, Streptavidin-Agarose precipitation, LC-MS/MS).

binding, binds:
B1
B2
B3
B4

What follows are binders tested against T4, EcR (isoform A) fused to BioID2 through a 25 nm GS linker, marked with 3xFLAG (Drosophila melanogaster) in the same assay as above.

binding, binds:
B1
B2
B3
B4
